Measured values from paper doi:10.1101/2021.04.08.438850.
Read-outs that look alike come from different tables or passages of the source. Results are given in words; binding and its absence hold for the method and conditions named. In cells and extracts the contact can be indirect. A yes stands for co-enrichment or nearness to the bait. Other partners may have been found. For part of these data: No binding means not detected with the bait. Values belong to the binder of their own block, whether it stands above or below them.

Assays:
[1] = molecular target: Bin3 (methyl phosphate capping enzyme homolog), protein A-tagged (S. pombe); test: affinity purification with mass spectrometry
[2] = molecular target: Bin3 (methyl phosphate capping enzyme homolog), protein A-tagged (S. pombe); test: affinity purification with mass spectrometry; remark: listed apart in the source

binding [1]: no binding
B1: Tgs1 (TMG capping enzyme) (enzyme, UniProt Q09814 1-239)
chain: MNKNEELDEDELLKKCIICPPVPKALKKYWNNRYNLFSRFDEGIWLDYQSWYSVTPEKVAVAIAKSVVDFIQPELIIDAFSGCGGNTIQFAKYCPVISIEIDPIKIAMAKHNLEIYGIPSSRVTFIQGDVLDTFKSLQFAKDYRSLVFMSPPWGGPSYSGKTVYSLNDLNPYAFDVLFKEATRISPYVAAFLPRNTDVKELAAYGSIHNKPYITNFLFEGYAKAICCYFNMKGAIARKI

binding [2]: binds | binding [1]: binds
B2: Pof8 (LARP7 family protein), endogenous (protein, UniProt O13795 1-402)
chain: MFVPRQLNVRKIKAFTGKENNSIADGNNNKLKDEHYKHNEASKEPSHSISGGLMLNQQDRQLIEPLNPDFLSAVDSILEIYFHRERQKEKVHLAFLIQQDDFWKGIRPNPTQNNLKYALSYVTNALFHFDNSSHMVIRNENIVLPLDIPLYDRIIYVEPVPATLSNKSLLLAGKLRKYLKEFLPYVDAIGTPEGYAFVILYKKVDQSALSKLPVPPGWVLLTRKEWTNREEKYFENQLHLVKASSSDVSNSSNSFPENRYPKLTKVEKQMTKSVSKTSQTDKDEDNLDFTKNLLTRIKNLHPLTNKSTIHSLLSYVFSRQTQNIACEPMYIDYRKDETEAIIRWKTPLHAETCINAFRTQERKQNSHDDIRAHRKKGSSRPFLIAELITGEEEKNYWRMLKK
